We go through 77 compounds from publication PMC12040169 (PLOS Biology, 2025).

The structures appear in SMILES notation. This is one part of the list.

The subject of this test is T1, CTL2-GFP (C. trachomatis L2/434/Bu, GFP-expressing).
T1 construct: L2/434/Bu, GFP-expressing
On the set-up: species or system HeLa; Intracellular C. trachomatis growth in HeLa cells, bulk GFP fluorescence relative to DMSO. To be noted: bulk GFP, single well; 28.5 h, 10 µM; inhibitor.
Take `COc1ccc(N2CCN(CC(O)c3c[nH]c4cc(OC)ccc34)CC2)cc1` (centres unmarked) [CBK286355]: the “% of control remaining” value is listed as 110.837%.

In the case of `O=S(=O)(Oc1ccccc1)c1ccc2c(c1)Cc1cc(S(=O)(=O)Oc3ccccc3)ccc1-2` [CBK231928], the “% of control remaining” value is recorded as 103.826%. Regarding `CCC(CC)Oc1ccc(C2(C)NC(=O)NC2=O)cc1` (centres unmarked) [CBK288409], the “% of control remaining” value stood at 112.588%. As for `CC1CCC(C(N)=O)CN1C(=O)c1csc(Br)c1` (centres unmarked) [CBK305812], the “% of control remaining” value stood at 155.116%. As to `O=C1c2ccccc2S(=O)(=O)N1CC(O)Cn1ccc2ccccc21` (centres unmarked) [CBK267905], the “% of control remaining” value was found to be 106.869%. Next, `COc1ccc2[nH]cc(CC(=O)N3CCCC4(CCN(C(=O)c5ccc(OC)c(OC)c5)C4)C3)c2c1` (centres unmarked) [CBK131666]: 120.64%; `O=C(CSc1ccc(Cl)cc1)Nc1ccc(CN2CCOCC2)cc1` [CBK305855]: 157.295%; `O=C(NCCc1ccccc1)c1cc(-c2ccccc2Cl)[nH]n1` [CBK288113]: 132.752%. In the case of `Cc1ccc2nc(C)cc(C(=O)NNC(=O)Nc3ccc([N+](=O)[O-])cc3)c2c1` [CBK266890], the “% of control remaining” value came out at 108.244%. Turning to `Cc1cc(CC(=O)NCc2c(-c3ccccc3)noc2C)on1` [CBK144090], the “% of control remaining” value is 123.601%.

For the compound `Cc1ccc(OCC(=O)Nc2ccccc2N2CCN(S(C)(=O)=O)CC2)cc1` [CBK268722], the “% of control remaining” value amounted to 94.6419%.

In the case of `CS(=O)(=O)c1ccc(-c2cccc(COC3CCN(C(=O)Cc4ccc(F)cc4F)CC3)c2)cc1` [CBK149506], the “% of control remaining” value was determined as 90.4612%. For the compound `COc1ccccc1C1=NN(C(=O)CCCC(=O)O)C(c2ccco2)C1` (centres unmarked) [CBK266642], the “% of control remaining” value turned out to be 121.019%. Under `Cn1cc(-c2cncn2CCCOc2ccc(Cl)cc2)cn1` [CBK281784] stands 175.905%. Regarding `O=C(/C=C/c1ccco1)Nc1cc2ccccc2cc1NC(=O)/C=C/c1ccco1` [CBK261474], the “% of control remaining” value is listed as 120.032%. On to `Nc1ccc(-c2cn3ccnc3c(NCc3cccs3)n2)cc1` [CBK066564], for which the “% of control remaining” value turned out to be 199.099%.

`O=C1C(n2c(=O)[nH]c3ccccc3c2=O)CCN1CC(F)(F)F` (centres unmarked) [CBK305264]: the “% of control remaining” value came to 79.3091%.

As to `O=C(O)c1ccccc1NS(=O)(=O)c1cccc2cccnc12` [CBK042358], the “% of control remaining” value is 146.557%.

Take `CC(NC(=O)c1c2c(nn1C)CCCC2)c1ccccn1` (centres unmarked) [CBK281888]: the “% of control remaining” value is listed as 132.595%.

As to `COCCN(Cc1nnc(-c2cccs2)o1)C(C(=O)N1CCOCC1)c1ccccc1` (centres unmarked) [CBK295190], the “% of control remaining” value was determined as 148.641%. Consider `Cc1ccc(N(CCc2cc(C(F)(F)F)cc(C(F)(F)F)c2)C(=O)CN)cc1NC(=O)CN(C)C` [CBK003630T], for which the “% of control remaining” value is 133.845%. With `COc1ccccc1CC(=O)N1CCCC(c2cc3ncccc3[nH]2)C1` (centres unmarked) [CBK283417], the “% of control remaining” value turned out to be 122.134%. Regarding `O=C(Oc1cccc(-c2cnc3ccccc3n2)c1)c1cccc(S(=O)(=O)N2CCOCC2)c1` [CBK262096], the “% of control remaining” value came out at 97.2397%.

As to `O/N=C/Nc1nccc(-c2cc(Cl)sc2Cl)n1` [CBK005934], the “% of control remaining” value was determined as 151.377%. Under `COc1cc(OC)cc(C(=O)N2CCC3(CC2)CC(=O)c2cc(C)ccc2O3)c1` [CBK167804] stands 113.995%; under `Cc1cc(COc2nccnc2N2CCCC2)no1` [CBK115755], 104.386%; under `Cc1cc(C)cc(OCc2nnc(SCC(=O)N3CCN(c4ccccc4)CC3)o2)c1` [CBK268012], 126.192%. `CC(C#N)(NC(=O)COc1ncnc2sc3c(c12)CCC3)C1CC1` (centres unmarked) [CBK306333]: the “% of control remaining” value came to 92.4417%. Next, `Cc1cnc(CN2CCNC(=O)C2c2ccccc2C(F)(F)F)o1` (centres unmarked) [CBK306431]: 80.4768%; `CN(C)CCN(C)C(=O)c1ccc(-c2cc3ccccc3o2)nc1NCc1cccnc1` [CBK076160]: 113.479%; `CCCCCCC(C)n1c(-c2nonc2N)nc2ccccc21` (centres unmarked) [CBK062648]: 126.737%. Next, `CCN1C(=O)/C(=C/c2cc(Br)ccc2OCc2cccc([N+](=O)[O-])c2)NC1=S` [CBK265138]: 156.205%; `COc1ccc(-c2nnc([C@H]3CCN(Cc4cccc(C#N)c4)C3)o2)cc1` [CBK289400]: 112.018%. For `O=C(Nc1nc(-c2ccccc2)cs1)c1ccc(N2C(=O)CCC2=O)cc1` [CBK287333], the “% of control remaining” value was determined as 145.739%. Under `Cc1ccc(-n2c(SCC(=O)c3ccc4c(c3)OCO4)nnc2-c2ccncc2)cc1` [CBK266132] stands 188.469%.

Regarding `Cc1nnc(NC(=O)c2ccc3c(c2)OCO3)s1` [CBK287358], the “% of control remaining” value was found to be 132.571%. `O=c1[nH]c2cc(NCCO)c([N+](=O)[O-])cc2[nH]1` [CBK009794]: the “% of control remaining” value came to 95.8537%. For the compound `COc1ccc(Cl)cc1NC(=O)CN(c1cc(C(F)(F)F)ccc1Cl)S(C)(=O)=O` [CBK264724], the “% of control remaining” value came to 120.368%.

Consider `Cc1cccc(NC(=O)COc2ccccc2CNc2ccc(Br)cc2)c1` [CBK266534], for which the “% of control remaining” value is listed as 133.857%. Turning to `Cc1cc(C)[n+](-c2nccs2)c(C)c1` [CBK008782G], the “% of control remaining” value is listed as 90.2271%. Under `CN(C)c1ccc(-c2cn3ccnc3c(NC3CC3)n2)cc1` [CBK037894] stands 110.562%; under `Cc1sc2nc(C)n(C3CCN(C(=O)C(C)C)CC3)c(=O)c2c1C` [CBK282414], 116.066%. Take `Cc1ccc(C(=O)C(NC(=O)c2ccco2)Nc2cccc3ccccc23)cc1` (centres unmarked) [CBK263856]: the “% of control remaining” value is 66.4912%. Next, `COc1ccc(-n2c(SCc3nc4ccccc4[nH]3)nc3sc4c(c3c2=O)CCCC4)cc1` [CBK267558]: 143.672%.

For `COc1ccccc1-c1nn2c(Cn3nnc4ccccc43)nnc2s1` [CBK268373], the “% of control remaining” value was 148.958%. For `O=C(C/C=N/OCc1ccccc1)c1sccc1Cl` [CBK021611], the “% of control remaining” value stood at 141.54%. `Cc1nc([N+](=O)[O-])c(N2CCN(C)CC2)n1Cc1ccccc1` [CBK261421]: the “% of control remaining” value was 118.063%.

As to `CC(=O)Nc1ccc(CC(C(=O)O)c2ccccc2)cc1` (centres unmarked) [CBK286600], the “% of control remaining” value amounted to 124.987%. Next, `CCCC(=O)Nc1cc(S(=O)(=O)NC)ccc1C` [CBK024770]: 124.391%; `Cc1ccc2[nH]c(SCc3nc(-c4cccs4)no3)nc2c1` [CBK269509]: 113.771%. In the case of `COc1ccccc1N1CCN(c2nccc3sc(S(=O)(=O)NC4CCC4)cc23)CC1` [CBK038248C], the “% of control remaining” value came out at 126.52%. `COc1ccc(C(=O)Nc2ccc3[nH]ccc3c2)cc1Cl` [CBK159681]: the “% of control remaining” value is given as 100.379%. `N=C1/C(=C/c2ccc(-c3cccc([N+](=O)[O-])c3)o2)C(=O)N=C2SC(SCc3ccccc3)=NN12` [CBK265354]: the “% of control remaining” value came to 131.441%.

With `COc1ccc(CC(=O)N2CCC(Cc3cccc(-c4cccs4)c3)(C(N)=O)CC2)cc1` [CBK285744], the “% of control remaining” value is on record as 124.853%. With `FC(F)(F)c1cccc(CSc2nc3ccccc3nc2N2CCCC2)c1` [CBK107190], the “% of control remaining” value is reported as 83.5542%. Next, `CC(C)c1ccc(/C=C/C(=O)NC(=S)Nc2cccc(C(=O)O)c2)cc1` [CBK265024]: 100%; `CC(C)CCN(C)C(=O)c1cccc(S(=O)(=O)NCc2ccsc2)c1` [CBK307656]: 118.389%; `CCOc1ccc(CNCc2ccc(C(=O)O)cc2)cc1OC` [CBK269590C]: 145.302%. Under `O=C(CSc1nc(O)cc(=O)n1-c1ccccc1)c1ccccc1` [CBK261745] stands 102.207%. Under `N=C(N)NCCc1c[nH]c2ccccc12` [CBK024011G] stands 71.2117%; under `OC(CNCCc1cccnc1)COc1cccc2c1CCCC2` (centres unmarked) [CBK002237], 87.4666%. For `Cc1cccc(/N=C(\N)Nc2nc(=O)cc(C)[nH]2)c1` [CBK288144], the “% of control remaining” value was 121.981%.

Turning to `CC(=O)NCCNC(=O)c1ccc(C)nc1N1CCOCC1` [CBK076453], the “% of control remaining” value came to 157.391%. `NC(=O)c1ccccc1NC(=O)Cc1ccc2c(c1)CCCC2` [CBK298334]: the “% of control remaining” value amounted to 85.6763%. Regarding `O=C(NCCS(=O)(=O)c1ccccc1)c1cnc(-c2ccc(Cl)cc2)c(-c2ccco2)c1` [CBK037546], the “% of control remaining” value is listed as 143.6%.

In the case of `CCCC(=O)Nc1ccccc1NC(=O)c1ccc2c(c1)OCO2` [CBK265841], the “% of control remaining” value stood at 126.108%. Next, `CCC(Sc1nc(C)cc(C)n1)C(=O)Nc1ccc(NC(C)=O)cc1` (centres unmarked) [CBK269804]: 108.273%.

Consider `Cc1n[nH]c(C)c1CC(=O)NC(Cc1cccs1)c1ccccn1` (centres unmarked) [CBK285208], for which the “% of control remaining” value is recorded as 115.961%. For `COCCNS(=O)(=O)c1cccc2c1CN(C(=O)c1ccccc1)CC2` [CBK306539], the “% of control remaining” value is listed as 134.448%. Next, `CC(C)c1ccc(N2C(=O)SC(c3ccccc3)C2=O)cc1` (centres unmarked) [CBK113687]: 109.625%; `c1ccc(Oc2cccc(C(N3CCOCC3)N3CCOCC3)c2)cc1` [CBK261798]: 110.99%; `O=C1CNC(=O)C2(C/C=C/C[C@H]3COCC[C@H]3N1)CCN(C(=O)C1CCOCC1)CC2` [CBK292143]: 156.33%. Consider `OCc1nnc2c3ccccc3c(-c3ccccc3)nn12` [CBK269927], for which the “% of control remaining” value was 111.331%.

On to `O=C(CSCc1ccc(Cl)cc1Cl)Nc1ccc(Oc2ccc3c(c2)C(=O)NC3=O)cc1` [CBK266779], for which the “% of control remaining” value was 131.972%. Next, `COc1ccc(CCN2C(=O)c3[nH]nc(-c4cc(C)c(C)cc4O)c3C2c2ccccc2)cc1` (centres unmarked) [CBK269154]: 142.325%. Under `COc1cc(C=CC(=O)N(C)c2ccccc2C(=O)O)cc(OC)c1OC` [CBK296136] stands 129.289%; under `Cc1cc(C)c2oc(-c3ccc(C)c(NC(=O)COc4ccccc4C)c3)nc2c1` [CBK263067], 96.9083%.
